Measured values published in patent publication US8778939B2, “Compounds” (Glaxo Group Limited, priority 2009, dated 2014).
Some of these results come from one statement about several compounds together.

molecular target: T1, 6His-Tev-LRRK2 (1326-2527) (Homo sapiens, UniProt Q5S007); assay: LRRK2 peptide substrate assay; assay type: biochemical; details: Biotin-LRRKtide peptide substrate, ATP at Km
T1 construct: A LRRK2 cDNA encoding residues 1326-2527 was received from Dundee University; made in house; host or cells: Spodoptera frugiperda (Sf9) insect cells, baculovirus
T1 sequence (Q5S007 1326-2527): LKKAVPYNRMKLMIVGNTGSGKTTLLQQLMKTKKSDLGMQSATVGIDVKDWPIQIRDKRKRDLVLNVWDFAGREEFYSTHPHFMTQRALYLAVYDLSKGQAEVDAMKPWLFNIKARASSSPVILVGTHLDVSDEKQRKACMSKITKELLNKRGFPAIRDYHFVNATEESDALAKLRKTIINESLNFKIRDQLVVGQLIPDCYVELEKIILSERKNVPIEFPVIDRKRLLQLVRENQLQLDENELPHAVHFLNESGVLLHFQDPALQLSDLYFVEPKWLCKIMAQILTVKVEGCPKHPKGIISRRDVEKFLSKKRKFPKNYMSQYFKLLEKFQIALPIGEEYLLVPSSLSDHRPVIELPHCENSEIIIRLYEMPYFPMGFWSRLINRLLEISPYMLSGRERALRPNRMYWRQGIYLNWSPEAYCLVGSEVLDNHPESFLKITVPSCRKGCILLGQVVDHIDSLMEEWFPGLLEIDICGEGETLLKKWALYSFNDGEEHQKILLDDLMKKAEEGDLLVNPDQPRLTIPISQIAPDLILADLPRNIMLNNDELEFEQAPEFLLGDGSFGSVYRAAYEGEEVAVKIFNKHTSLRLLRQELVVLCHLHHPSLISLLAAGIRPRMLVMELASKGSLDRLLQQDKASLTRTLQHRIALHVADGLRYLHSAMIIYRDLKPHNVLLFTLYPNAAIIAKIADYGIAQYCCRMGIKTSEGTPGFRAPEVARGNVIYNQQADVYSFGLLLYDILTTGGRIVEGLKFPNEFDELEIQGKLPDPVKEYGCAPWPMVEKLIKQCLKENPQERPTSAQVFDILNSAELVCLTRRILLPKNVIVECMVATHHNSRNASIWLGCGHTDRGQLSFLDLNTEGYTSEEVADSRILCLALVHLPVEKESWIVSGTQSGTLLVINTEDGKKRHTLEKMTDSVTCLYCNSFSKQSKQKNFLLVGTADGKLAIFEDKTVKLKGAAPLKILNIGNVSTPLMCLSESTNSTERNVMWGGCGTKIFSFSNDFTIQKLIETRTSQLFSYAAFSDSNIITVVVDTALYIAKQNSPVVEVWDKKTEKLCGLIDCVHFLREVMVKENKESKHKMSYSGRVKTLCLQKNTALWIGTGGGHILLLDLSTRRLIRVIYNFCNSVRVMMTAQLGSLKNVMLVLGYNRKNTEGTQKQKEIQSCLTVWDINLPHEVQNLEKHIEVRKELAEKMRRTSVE
Method: Compounds of formula (I) may be tested for in vitro kinase activity in accordance with the following assays, using the non natural, in vitro, substrates moesin and the Longer Biotin-LRRKtide. Moesin and a shorter version of the peptide were identified as substrates in Jaleel et al, (2007, Biochem J, 405: 307-317).
LRRK2 Peptide Substrate Assay
a) 100 nl of a 1:4 serial dilution of test compound with a top final assay concentration of 30 μM is added to certain wells in a low volume 384 well black plate. 100 nl of DMSO is used in certain wells as controls.
b) 3 μl enzyme solution (80 nM purified recombinant 6His-Tev-LRRK2 (1326-2527) in assay buffer: 50 mM Hepes (pH 7.2), 10 mM MgCl2, 150 mM NaCl, 5% glycerol, 0.0025% triton X-100 and 1 mM DTT) is added to certain wells. […] Plates are then incubated for a further 1-2 hours at room temperature (incubation time varies depending upon rate and linearity of reaction with differing enzyme batches). d) 6 μl detection solution (50 nM Streptavidin SureLight® APC (PerkinElmer), 4 nM Eu-W1024 labelled anti-rabbit IgG antibody (PerkinElmer), 1:500 dilution (dilution determined on a batch to batch basis) of Phospho-Ezrin (Thr567)/Radixin (Thr564)/Moesin (Thr558) Polyclonal Antibody (New England Biolabs) and 60 mM EDTA in buffer: 40 mM Hepes (pH 7.2), 150 mM NaCl, 0.03% BSA) is added to each well. Plates are then incubated for a further 2 hours at room temperature before reading on a suitable plate reader (Excitation 330 nm, emission 620 nm (Eu) and 665 nm (APC)). Data is analysed using ActivityBase software (IDBS). LRRK2 AlphaScreen Protein Substrate Assay

| Compound | pIC50 in the LRRK2 peptide substrate assay |
| --- | --- |
| CN1CCC(Oc2ccc(OCc3ccccc3)c(C(=O)Nc3cccnc3)c2)CC1 [Example 31, 5-[(1-Methyl-4-piperidinyl)oxy]-2-[(phenylmethyl)oxy]-N-3-pyridinylbenzamide] | ≥ 5.6 |
| O=C(Nc1cnoc1)c1cc(-c2ccncc2)ccc1OCc1ccccc1 [Example 63, N-4-Isoxazolyl-2-[(phenylmethyl)oxy]-5-(4-pyridinyl)benzamide] | ≥ 5.6 |
| O=C(Nc1cccnc1)c1cc(-c2ccncc2)ccc1OCc1ccc(F)cc1 [Example 90, 2-{[(4-Fluorophenyl)methyl]oxy}-N-3-pyridinyl-5-(4-pyridinyl)benzamide] | ≥ 5.6 |
| Cc1nocc1NC(=O)c1cc(C(F)(F)F)ccc1OCc1ccc(F)cc1 [Example 133, 2-{[(4-fluorophenyl)methyl]oxy}-N-(3-methyl-4-isoxazolyl)-5-(trifluoromethyl)benzamide] | ≥ 5.6 |
| CNC(=O)c1cccc(NC(=O)c2cc(Br)ccc2OCc2ccccc2)c1 [Example 27, 5-Bromo-N-{3-[(methylamino)carbonyl]phenyl}-2-[(phenylmethyl)oxy]benzamide] | ≥ 5.6 |
| Cn1cc(-c2ccc(OCc3ccc(F)cc3)c(C(=O)Nc3cnoc3)c2)cn1 [Example 134, 2-{[(4-Fluorophenyl)methyl]oxy}-N-4-isoxazolyl-5-(1-methyl-1H-pyrazol-4-yl)benzamide] | ≥ 5.6 |
| O=C(Nc1ccnnc1)c1cc(-c2ccncc2)ccc1OCc1ccc(F)cc1 [Example 89, 2-{[(4-Fluorophenyl)methyl]oxy}-N-4-pyridazinyl-5-(4-pyridinyl)benzamide] | ≥ 5.6 |
| Cn1cc(-c2ccc(OCc3ccccc3C#N)c(C(=O)Nc3cccnc3)c2)cn1 [Example 113, 2-{[(2-Cyanophenyl)methyl]oxy}-5-(1-methyl-1H-pyrazol-4-yl)-N-3-pyridinylbenzamide] | ≥ 5.6 |
| COc1ccccc1COc1ccc(-c2cnn(C)c2)cc1C(=O)Nc1cccnc1 [Example 114, 2-({[2-(Methyloxy)phenyl]methyl}oxy)-5-(1-methyl-1H-pyrazol-4-yl)-N-3-pyridinylbenzamide] | ≥ 5.6 |
| COc1cccc(COc2ccc(-c3cnn(C)c3)cc2C(=O)Nc2cccnc2)c1 [Example 115, 2-({[3-(Methyloxy)phenyl]methyl}oxy)-5-(1-methyl-1H-pyrazol-4-yl)-N-3-pyridinylbenzamide] | ≥ 5.6 |
| O=C(O)CCc1ccc(OCc2ccccc2)c(C(=O)Nc2cccnc2)c1 [Example 88, 3-{4-[(phenylmethyl)oxy]-3-[(3-pyridinylamino)carbonyl]phenyl}propanoic acid] | ≥ 5.6 |
| COC(=O)NCc1ccc(OCc2ccc(F)cc2)c(C(=O)Nc2cccnc2)c1 [Example 118, Methyl ({4-{[(4-fluorophenyl)methyl]oxy}-3-[(3-pyridinylamino)carbonyl]phenyl}methyl)carbamate] | ≥ 5.6 |
| COc1cccc(COc2ccc(Br)cc2C(=O)Nc2cccnc2)c1 [Example 18, 5-Bromo-2-({[3-(methyloxy)phenyl]methyl}oxy)-N-3-pyridinylbenzamide] | ≥ 5.6 |
| O=C(Nc1cccnc1)c1cc(C(=O)N2CCOCC2)ccc1OCc1ccccc1 [Example 38, 5-(4-Morpholinylcarbonyl)-2-[(phenylmethyl)oxy]-N-3-pyridinylbenzamide] | ≥ 5.6 |
| O=C(Nc1cccnc1)c1cc(Br)ccc1OCc1ccccc1 [Example 2, 5-Bromo-2-[(phenylmethyl)oxy]-N-3-Pyridinylbenzamide] | ≥ 5.6 |
| Cn1cc(NC(=O)c2cc(-c3ccncc3)ccc2OCc2ccccc2)cn1 [Example 65, N-(1-Methyl-1H-pyrazol-4-yl)-2-[(phenylmethyl)oxy]-5-(4-pyridinyl)benzamide] | ≥ 5.6 |
| O=C(Nc1cccnc1)c1cc(CN2CCOCC2)ccc1OCc1ccc(F)c(F)c1 [Example 112, 2-{[(3,4-Difluorophenyl)methyl]oxy}-5-(4-morpholinylmethyl)-N-3-pyridinylbenzamide] | ≥ 5.6 |
| O=C(Nc1cncc(F)c1)c1cc(Br)ccc1OCc1ccccc1 [Example 98, 5-Bromo-N-(5-fluoro-3-pyridinyl)-2-[(phenylmethyl)oxy]benzamide] | ≥ 5.6 |
| O=C(Nc1ccnnc1)c1cc(-c2cn[nH]c2)ccc1OCc1ccc(F)cc1 [Example 92, 2-{[(4-Fluorophenyl)methyl]oxy}-5-(1H-pyrazol-4-yl)-N-4-pyridazinylbenzamide] | ≥ 5.6 |
| O=C(Nc1cccnc1)c1cc(CCCN2CCOCC2)ccc1OCc1ccc(F)cc1 [Example 136, 2-{[(4-Fluorophenyl)methyl]oxy}-5-[3-(4-morpholinyl)propyl]-N-3-pyridinylbenzamide] | ≥ 5.6 |
| CN1CCN(S(=O)(=O)c2ccc(OCc3ccccc3)c(C(=O)Nc3cccnc3)c2)CC1 [Example 43, 5-[(4-Methyl-1-piperazinyl)sulfonyl]-2-[(phenylmethyl)oxy]-N-3-pyridinylbenzamide] | ≥ 5.6 |
| N#Cc1ccc(OCc2ccccc2)c(C(=O)Nc2cccnc2)c1 [Example 8, 5-Cyano-2-[(phenylmethyl)oxy]-N-3-pyridinylbenzamide] | ≥ 5.6 |
| O=C(Nc1cccnc1)c1cc(C(=O)N2CCCC2)ccc1OCc1ccccc1 [Example 37, 2-[(Phenylmethyl)oxy]-N-3-pyridinyl-5-(1-pyrrolidinylcarbonyl)benzamide] | ≥ 5.6 |
| O=C(Nc1ccnnc1)c1cc(CN2CCOCC2)ccc1OCc1ccc(F)c(F)c1 [Example 111, 2-{[(3,4-Difluorophenyl)methyl]oxy}-5-(4-morpholinylmethyl)-N-4-pyridazinylbenzamide] | ≥ 5.6 |
| COC(=O)NCc1ccc(OCc2ccccc2)c(C(=O)Nc2cccnc2)c1 [Example 86, Methyl ({4-[(phenylmethyl)oxy]-3-[(3-pyridinylamino)carbonyl]phenyl}methyl)carbamate] | ≥ 5.6 |
| CC(C)c1ccc(OCc2ccccc2)c(C(=O)Nc2cccnc2)c1 [Example 1, 5-(1-Methylethyl)-2-[(phenylmethyl)oxy]-N-3-pyridinylbenzamide] | ≥ 5.6 |
| O=C(Nc1cccnc1)c1cc(O)ccc1OCc1ccccc1 [Example 29, 5-Hydroxy-2-[(phenylmethyl)oxy]-N-3-pyridinylbenzamide] | ≥ 5.6 |
| O=C(Nc1cccnc1)c1cc(Br)ccc1OCc1ccc(Cl)cc1 [Example 9, 5-Bromo-2-{[(4-chlorophenyl)methyl]oxy}-N-3-pyridinylbenzamide] | ≥ 5.6 |
